Laboratory results taken from patent US20260206759A1, “PYRAZOL-5-ETHER COMPOUND, AND PREPARATION METHOD THEREFOR AND USE THEREOF” (CAC NANTONG CHEMICAL CO., LTD., priority 2023, published 2026).
Some entries share one result that the patent states for a list of compounds.

Key:
Type in all cases: in vivo
[1] = system: wheat powdery mildew (Blumeria graminis (DC.) Speer); assay: Whole-plant pot assay, control effect against wheat powdery mildew; details: spray on wheat leaves, inoculation 24 h after treatment, assessed 10 days after inoculation
Experimental: Various kinds of pathogens were tested with the compounds of the present application. Unless otherwise specified in the examples and the present application, the preparation method of samples is as follows: 10 mg of the compound was weighed and dissolved in 1 mL DMF to prepare a 10000 ppm stock solution, and the stock solution was diluted with 0.05% Tween-80 aqueous solution to the required concentrations for activity tests.
In this example, the control effects of the prepared pyrazol-5-ether compounds against wheat powdery mildew (Blumeria graminis (DC.) Speer) were tested using the following method.
A whole-plant pot assay was employed for screening. The pesticide formulation was uniformly sprayed onto wheat leaves at the first true leaf stage using a laryngeal atomizer, with three replicates per treatment. The treated plant was air-dried naturally indoors. At 24 hours post-treatment, wheat powdery mildew spores (collected approximately 10 days after inoculation) were evenly dusted onto the compound-treated wheat leaves. Disease assessment was conducted 10 days after spore inoculation when symptom development stabilized in the control group. The assessment results were recorded on a 100-0 scale, where ‘100’ indicates complete disease absence and ‘0’ represents maximum disease severity.

[2] = system: soybean rust (Phakopsora pachyrhizi); assay: Whole-plant pot assay, control effect against soybean rust; details: foliar spray on soybean plants, inoculation 24 h after treatment
Experimental: In this example, the control effects of the prepared pyrazol-5-ether compounds against soybean rust (Phakopsora pachyrhizi) were tested using the following method.
(§1) A whole-plant pot assay was employed for screening. […] Greenhouse-cultivated soybean plants at the two-leaf stage served as test hosts for soybean rust (Phakopsora pachyrhizi). The compounds of the present application were sprayed on the leaves at designed concentrations, and blank controls sprayed with water were also set, in triplicate. At 24 hours post-treatment, pathogen inoculation was conducted. After inoculation, the plants were maintained in controlled environment chamber for constant humidity culture (temperature: 25° C. day/20° C. night, relative humidity: 95%-99%). After 24 hours of incubation, the plants were transferred to the greenhouse. Control effect assessments were conducted on the compounds when disease symptoms fully developed in controls (typically one week). The assessment results were recorded according to the A Manual of Assessment Keys for Plant Diseases compiled by the American Phytopathological Society on a 100-0 scale, where ‘100’ indicates complete disease absence and ‘0’ represents maximum disease severity.

[3] = system: cucumber powdery mildew (Erysiphe cichoracearum); assay: Whole-plant pot assay, control effect against cucumber powdery mildew; details: foliar spray on cucumber seedlings, inoculation 24 h after treatment
Experimental: In this example, the control effects of the prepared pyrazol-5-ether compounds against cucumber powdery mildew (Erysiphe cichoracearum) were tested using the following method.
as §1, with “cucumber seedlings” for “soybean plants”, “cucumber powdery mildew (Erysiphe cichoracearum).” for “soybean rust (Phakopsora pachyrhizi).”, “lank” for “blank”, “recorded” for “recorded according to the A Manual of Assessment Keys for Plant Diseases compiled by the American Phytopathological Society”

| SMILES | control effect against wheat powdery mildew ([1]; 10 ppm) | control effect against wheat powdery mildew ([1]; 40 ppm) | also measured |
| --- | --- | --- | --- |
| Cc1cc(Oc2cc(C(F)(F)F)nn2C)c(Cl)cc1N=CN1CCCCC1 [Compound 69] | > 70% | – | – |
| Cc1cc(N=CN2CCCCC2)c(Cl)cc1Oc1cc(C(F)(F)F)nn1C(C)C [Compound 251] | – | ≥ 80% | – |
| CCN(C=Nc1cc(Cl)c(Oc2cc(C(F)(F)F)nn2C)cc1C)CC [Compound 66] | – | ≥ 80% | – |
| CCCn1nc(C(F)(F)F)cc1Oc1cc(C)c(N=CN2CCCCC2)cc1C [Compound 199] | – | – | control effect against soybean rust ([2]; 4 ppm): > 80% |
| CCn1nc(C(F)(F)F)cc1Oc1cc(C)c(N=CN2CCCCC2)cc1C [Compound 177] | > 70% | – | – |
| CCN(C)/C=N/c1cc(C)c(Oc2cc(C(F)(F)F)nn2C)cc1C [Compound 16, (E)-N′-[4-(1-methyl-3-trifluoromethyl-1H-pyrazol-5-yloxy)-2,5-dimethylphenyl]-N-ethyl-N-met hylformamidine] | > 70% | – | control effect against soybean rust ([2]; 4 ppm): > 80% |
| CCn1nc(C(F)(F)F)cc1Oc1cc(C)c(N=CN(C)C)cc1C [Compound 178] | > 70% | – | – |
| Cc1cc(Oc2cc(C(F)(F)F)nn2C)c(Cl)cc1N=CN1CCCC1 [Compound 68] | – | ≥ 80% | – |
| Cc1cc(Oc2cc(C(F)(F)F)nn2C(C)C)c(Cl)cc1N=CN1CCCCC1 [Compound 214] | – | – | control effect against cucumber powdery mildew ([3]; 2.5 ppm): > 90%; control effect against cucumber powdery mildew ([3]; 4 ppm): ≥ 90% |
| CCn1nc(C(F)(F)F)cc1Oc1cc(C)c(N=CN2CCCCC2C)cc1Cl (stereo not drawn) [Compound 190] | – | – | control effect against cucumber powdery mildew ([3]; 2.5 ppm): > 90%; control effect against cucumber powdery mildew ([3]; 4 ppm): ≥ 90% |
| CCn1nc(C(F)(F)F)cc1Oc1cc(C)c(N=CN2CCCCC2C)cc1C (stereo not drawn) [Compound 180] | – | – | control effect against cucumber powdery mildew ([3]; 4 ppm): ≥ 90% |
| CCN(C)C=Nc1cc(Cl)c(Oc2cc(C(F)(F)F)nn2C2CC2)cc1C [Compound 230] | – | ≥ 80% | – |
| CCN(C)C=Nc1cc(Cl)c(Oc2cc(C(F)(F)F)nn2CC(F)(F)F)cc1C [Compound 225] | – | ≥ 80% | – |
| CCN(C)C=Nc1cc(Cl)c(Oc2cc(C)nn2C)cc1C [Compound 117] | – | ≥ 80% | – |
| CCN(C)C=Nc1cc(Cl)c(Oc2cc(C(F)(F)F)nn2CC)cc1C [Compound 186] | > 70% | ≥ 80% | control effect against cucumber powdery mildew ([3]; 2.5 ppm): > 90%; control effect against cucumber powdery mildew ([3]; 4 ppm): ≥ 90% |
| CCN(C=Nc1cc(Cl)c(Oc2cc(C(F)(F)F)nn2CC)cc1C)CC [Compound 188] | > 70% | – | – |
| CCN(C)C=Nc1cc(C)c(Oc2cc(C(F)(F)F)nn2C(C)C)cc1C [Compound 207] | > 70% | – | control effect against soybean rust ([2]; 4 ppm): > 80% |
| CCn1nc(C(F)(F)F)cc1Oc1cc(C)c(N=CN2CCCC2)cc1C [Compound 176] | > 70% | – | control effect against soybean rust ([2]; 10 ppm): > 90% |
| CCn1nc(C)cc1Oc1cc(C)c(N=CN2CCCCC2)cc1C [Compound 242] | – | – | control effect against soybean rust ([2]; 10 ppm): > 90% |
| CCN(C)C=Nc1cc(C)c(Oc2cc(C3CC3)nn2C)cc1C [Compound 149] | – | ≥ 80% | – |

| SMILES | control effect against wheat powdery mildew ([1]; 10 ppm) | control effect against wheat powdery mildew ([1]; 40 ppm) | also measured |
| --- | --- | --- | --- |
| Cc1cc(Oc2cc(C(F)(F)F)nn2CC(C)C)c(C)cc1N=CN1CCCCC1 [Compound 255] | – | ≥ 80% | control effect against soybean rust ([2]; 10 ppm): > 90% |
| CCN(C)C=Nc1cc(C)c(Oc2cc(C(F)(F)F)nn2C(C)C)cc1Cl [Compound 250] | – | ≥ 80% | – |
| CCn1nc(C(F)(F)F)cc1Oc1cc(Cl)c(N=CN2CCCCC2)cc1C [Compound 198] | – | – | control effect against cucumber powdery mildew ([3]; 2.5 ppm): > 90%; control effect against cucumber powdery mildew ([3]; 4 ppm): ≥ 90% |
| Cc1cc(Oc2cc(C(F)(F)F)nn2C(C)(C)C)c(C)cc1N=CN1CCCCC1 [Compound 217] | – | – | control effect against cucumber powdery mildew ([3]; 4 ppm): ≥ 90% |
| CCN(C)C=Nc1cc(Cl)c(Oc2cc(C(F)(F)F)nn2C(C)C)cc1C [Compound 212] | > 70% | – | control effect against cucumber powdery mildew ([3]; 2.5 ppm): > 90%; control effect against cucumber powdery mildew ([3]; 4 ppm): ≥ 90%; control effect against soybean rust ([2]; 10 ppm): > 90% |
| CCN(C)C=Nc1cc(C)c(Oc2cc(C)nn2CC)cc1C [Compound 243] | – | – | control effect against soybean rust ([2]; 10 ppm): > 90% |
| Cc1cc(Oc2cc(C(F)(F)F)nn2CC(C)C)c(Cl)cc1N=CN1CCCCC1 [Compound 260] | – | ≥ 80% | – |
| CCN(C=Nc1cc(C)c(Oc2cc(C(F)(F)F)nn2C)cc1C)CC [Compound 18] | – | ≥ 80% | – |
| CCn1nc(C(F)(F)F)cc1Oc1cc(C)c(N=CN2CCCCC2)cc1Cl [Compound 185] | > 70% | – | control effect against cucumber powdery mildew ([3]; 2.5 ppm): > 90%; control effect against cucumber powdery mildew ([3]; 4 ppm): ≥ 90% |
| CCN(C)C=Nc1cc(Cl)c(Oc2cc(C(F)(F)F)nn2CC(C)C)cc1C [Compound 259] | – | ≥ 80% | – |
| CCN(C)C=Nc1cc(C)c(Oc2cc(C(F)(F)F)nn2CC(C)C)cc1C [Compound 254] | – | ≥ 80% | control effect against soybean rust ([2]; 10 ppm): > 90% |
| CCN(C=Nc1cc(C)c(Oc2cc(C(F)(F)F)nn2CC)cc1C)CC [Compound 179] | – | ≥ 80% | – |
| CCn1nc(C(F)(F)F)cc1Oc1cc(C)c(N=CN2CCCCCC2)cc1Cl [Compound 192] | – | – | control effect against cucumber powdery mildew ([3]; 4 ppm): ≥ 90% |
| CCN(C=Nc1cc(C)c(Oc2cc(C(F)(F)F)nn2C(C)C)cc1C)CC [Compound 208] | – | – | control effect against cucumber powdery mildew ([3]; 4 ppm): ≥ 90%; control effect against soybean rust ([2]; 4 ppm): > 80% |
| CCN(C)C=Nc1cc(C)c(Oc2cc(C)nn2C)cc1C [Compound 102] | – | ≥ 80% | – |
| CCCN(C=Nc1cc(Cl)c(Oc2cc(C(F)(F)F)nn2CC)cc1C)CCC [Compound 189] | > 70% | – | – |
| CCCn1nc(C(F)(F)F)cc1Oc1cc(C)c(N=CN(C)CC)cc1C [Compound 201] | – | – | control effect against soybean rust ([2]; 4 ppm): > 80% |
| CCN(C)C=Nc1cc(C)c(Oc2cc(C(F)(F)F)nn2C(C)(C)C)cc1C [Compound 215] | > 70% | – | – |
| CCN(C)/C=N/c1cc(C)c(Oc2cc(C(F)(F)F)nn2CC)cc1C [Compound 175, (E)-N-[4-(1-ethyl-3-trifluoromethyl-1H-pyrazol-5-yloxy)-2,5-dimethylphenyl]-N-ethyl-N-methylformamidine] | > 70% | – | control effect against soybean rust ([2]; 4 ppm): > 80% |
